{"sequences": {"note": "Amino acid sequences for entries named in this document (tags omitted). A change or cut given only in a name is not applied to a line headed by its entry.", "UniProt Q9H2X9": "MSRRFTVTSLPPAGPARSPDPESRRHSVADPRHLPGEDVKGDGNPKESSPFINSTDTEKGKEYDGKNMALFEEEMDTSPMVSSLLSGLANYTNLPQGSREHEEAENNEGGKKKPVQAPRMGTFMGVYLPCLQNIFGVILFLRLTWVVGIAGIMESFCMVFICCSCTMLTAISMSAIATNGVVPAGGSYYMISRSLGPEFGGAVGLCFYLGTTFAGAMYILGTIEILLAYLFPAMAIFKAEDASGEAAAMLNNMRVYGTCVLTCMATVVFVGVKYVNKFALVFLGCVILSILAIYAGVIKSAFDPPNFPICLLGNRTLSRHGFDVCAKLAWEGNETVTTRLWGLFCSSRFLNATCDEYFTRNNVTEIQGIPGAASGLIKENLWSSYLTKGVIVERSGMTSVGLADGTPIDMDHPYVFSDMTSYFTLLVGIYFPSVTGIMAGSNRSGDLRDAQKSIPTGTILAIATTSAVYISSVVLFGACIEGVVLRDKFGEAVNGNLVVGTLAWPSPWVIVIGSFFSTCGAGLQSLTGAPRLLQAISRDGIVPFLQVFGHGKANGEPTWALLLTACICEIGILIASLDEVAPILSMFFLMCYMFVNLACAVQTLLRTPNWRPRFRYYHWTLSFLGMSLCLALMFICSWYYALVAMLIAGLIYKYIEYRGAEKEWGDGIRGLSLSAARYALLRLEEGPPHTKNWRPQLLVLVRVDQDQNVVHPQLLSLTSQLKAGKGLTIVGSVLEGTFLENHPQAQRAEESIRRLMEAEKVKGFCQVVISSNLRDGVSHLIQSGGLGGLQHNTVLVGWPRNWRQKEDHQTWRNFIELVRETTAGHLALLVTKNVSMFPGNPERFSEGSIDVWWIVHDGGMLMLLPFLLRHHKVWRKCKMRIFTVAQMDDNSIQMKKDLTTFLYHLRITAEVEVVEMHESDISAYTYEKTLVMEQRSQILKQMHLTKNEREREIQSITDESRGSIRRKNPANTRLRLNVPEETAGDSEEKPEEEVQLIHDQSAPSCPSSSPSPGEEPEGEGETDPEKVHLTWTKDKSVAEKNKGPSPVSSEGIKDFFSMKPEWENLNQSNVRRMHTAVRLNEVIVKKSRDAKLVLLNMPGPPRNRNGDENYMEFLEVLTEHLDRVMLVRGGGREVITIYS"}, "source": "PubChem BioAssay", "note": "The shares of active, inactive and inconclusive entries below differ from those in the screen. Activity calls are given as the source filed them.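 The calls were made as follows: active = thallium flux slope above the same plate's solvent-only control mean plus 3 SD; inconclusive = the two replicate wells disagree; inactive = no significant difference from solvent-only control wells.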"}
{"molecular_target": "Solute carrier family 12 member 5 (Homo sapiens) (UniProt Q9H2X9)", "assay": "retest of KCC2 transport modulators without sodium – cell-based, HEK293 KCC2, thallium flux, secondary assay, confirmation (AID 1713)", "conditions": "FluoZin2 fluorescence, at 10 µM, hits give high values", "outline": "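measured by = kinetic FluoZin2 fluorescence at 1 Hz, ex 480/em 540 nm | material = KCC2-expressing HEK cells | read-out = F/F0 slope over 10–20 s post-thallium, baseline-normalized | repeats = two replicates | schedule = 48 min dye loading | buffer or medium = Sodium-free N-methylglucamine chloride buffer | also added = thallium sulfate stimulus buffer at pH 7.3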"}
{"smiles": "Cc1cccc(-n2cc(-c3ccc([N+](=O)[O-])cc3)[nH]c2=S)c1", "normalised thallium flux (F/F0 slope)": "inconclusive: 0.00837"}
{"smiles": "CN1C(=O)/C(=C/c2cc3c(cc2Br)OCO3)NC1=S", "normalised thallium flux (F/F0 slope)": "inconclusive: 0.0115"}
{"smiles": "O=C(N/N=C(\\c1ccccc1)c1ccccn1)c1cccc([N+](=O)[O-])c1", "normalised thallium flux (F/F0 slope)": "inconclusive: 0.00461"}
{"smiles": "CN(CCCn1c(=S)[nH]c2ncccc2c1=O)Cc1ccccc1", "normalised thallium flux (F/F0 slope)": "inconclusive: 0.0115"}
{"smiles": "COc1cccc(-c2nnc(NC(=O)c3cccc(F)c3)o2)c1", "normalised thallium flux (F/F0 slope)": "inconclusive: 0.00915"}
{"smiles": "Cc1nc(SCC(=O)Nc2cc(C(N)=O)cc(C(N)=O)c2)c2c(C)c(C)sc2n1", "normalised thallium flux (F/F0 slope)": "inconclusive: 0.0134"}
{"smiles": "O=C(NN=C(Cc1ccccc1)Cc1ccccc1)c1ccccc1O", "normalised thallium flux (F/F0 slope)": "inconclusive: 0.00926"}
{"smiles": "COc1ccccc1Oc1ncnc2c1cnn2-c1ccccc1", "normalised thallium flux (F/F0 slope)": "inconclusive: 0.00585"}
{"smiles": "Cc1ccc(NC(=O)CSc2nccn2Cc2ccccc2)cc1C", "normalised thallium flux (F/F0 slope)": "inconclusive: 0.00681"}
{"smiles": "Cc1ccc(S(=O)(=O)Oc2ccccc2/C=C2\\SC(=O)NC2=O)cc1", "normalised thallium flux (F/F0 slope)": "inconclusive: 0.00495"}
{"smiles": "CCOC(=O)N1CCN(C(=O)c2ccc3c(=O)n(Cc4ccccc4)c(=S)[nH]c3c2)CC1", "normalised thallium flux (F/F0 slope)": "inactive: 0.00922"}
{"smiles": "C(=N\\NC1=Nc2cccc3cccc1c23)/c1ccccn1", "normalised thallium flux (F/F0 slope)": "inconclusive: 0.00625"}
{"smiles": "CN1CCN(C(=S)NC(=O)c2ccc(Br)cc2)CC1", "normalised thallium flux (F/F0 slope)": "inconclusive: 0.0126"}
{"smiles": "CN(C)C(=S)NC(=O)C12CC3CC(C)(CC(C)(C3)C1)C2", "normalised thallium flux (F/F0 slope)": "inconclusive: 0.0192"}
{"smiles": "O=c1c2ccc(Cl)cc2[nH]c(=S)n1CCCN1CCOCC1", "normalised thallium flux (F/F0 slope)": "inconclusive: 0.0112"}
